Assay results: paper PMC8266859
No constants are given. Whether binding was seen depends on the method and setting. Binding seen in cells or lysates may run through a third protein. Binding can be weak; no strength is given. Tags and fused reporters may be left off the sequences shown.

Amino acid sequences for entries named in this document (tags omitted). A change or cut given only in a name is not applied to a line headed by its entry.
UniProt P02525: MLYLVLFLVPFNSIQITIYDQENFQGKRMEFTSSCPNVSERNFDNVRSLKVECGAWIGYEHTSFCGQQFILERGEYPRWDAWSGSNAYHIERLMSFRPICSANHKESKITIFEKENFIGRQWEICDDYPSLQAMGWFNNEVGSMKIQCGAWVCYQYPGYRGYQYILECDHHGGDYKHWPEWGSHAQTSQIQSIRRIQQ

Target: T1, phosphatidylinositol transfer protein beta isoform (PITPβ), mCherry fusion from Ad-CMV-mCherry-Pitpnb (UniProt P53811)
T1 sequence: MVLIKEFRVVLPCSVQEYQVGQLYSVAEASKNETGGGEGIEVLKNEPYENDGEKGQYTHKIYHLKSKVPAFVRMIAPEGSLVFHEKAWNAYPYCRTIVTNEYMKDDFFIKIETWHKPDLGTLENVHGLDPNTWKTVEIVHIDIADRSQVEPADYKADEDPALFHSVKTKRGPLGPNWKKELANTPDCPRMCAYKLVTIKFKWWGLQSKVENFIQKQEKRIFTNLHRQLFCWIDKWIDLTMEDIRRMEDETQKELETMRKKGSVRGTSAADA
Experiment: co-IP; lysates of wildtype mouse RPE flatmounts infected with Ad-CMV-mCherry-Pitpnb (or mCherry control) and Ad-CMV-A3 or Ad-CMV-A1 for 16 h; starved 2 h, with or without 50 ng/mL EGF for 30 min; RFP magnetic beads (Chromotek) 2 h at 4 °C; wash 10 mM Tris/Cl pH 7.5, 150 mM NaCl, 0.5 mM EDTA; western blot

binding: binds
Substance: βA1-crystallin (shorter isoform of βA3/A1-crystallin), from Ad-CMV-A1 (from UniProt P02525)
